Results reported in patent US20160289747.
For some of these results: A negative result means that nothing was seen under these conditions. For some of these results: Where a protein sequence is shown, tags need not be part of it. For some of these results: The exact form of at least one protein or probe is not confirmed. For some of these results: Weaker means in comparison with the reference protein, sequence or condition of that experiment.

The chains behind the UniProt entries cited, without tags or fusion partners. Residues count along the entry.
UniProt P0A7G6, 2-353: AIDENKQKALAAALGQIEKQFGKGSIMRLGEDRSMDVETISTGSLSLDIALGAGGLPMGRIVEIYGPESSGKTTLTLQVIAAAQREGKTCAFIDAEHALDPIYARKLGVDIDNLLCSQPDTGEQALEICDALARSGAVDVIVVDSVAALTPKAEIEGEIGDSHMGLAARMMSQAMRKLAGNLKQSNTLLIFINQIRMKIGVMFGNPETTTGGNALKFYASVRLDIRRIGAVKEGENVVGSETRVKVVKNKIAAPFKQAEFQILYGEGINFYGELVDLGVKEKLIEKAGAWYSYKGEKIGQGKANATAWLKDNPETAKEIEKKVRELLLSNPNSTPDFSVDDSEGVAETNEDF

Legend:
[1] = biological target: UvsX recombinase (Enterobacteria phage T4) (UniProt P04529); experiment: binding assay; details: purified recombinant protein, label: fluorophore and quencher
[2] = biological target: T1, gp32 single-stranded DNA binding protein (Enterobacteria phage T4) (UniProt P03695); experiment: binding assay; details: purified recombinant protein, protein details: New England Biolabs
T1 sequence (looked up, limits assumed): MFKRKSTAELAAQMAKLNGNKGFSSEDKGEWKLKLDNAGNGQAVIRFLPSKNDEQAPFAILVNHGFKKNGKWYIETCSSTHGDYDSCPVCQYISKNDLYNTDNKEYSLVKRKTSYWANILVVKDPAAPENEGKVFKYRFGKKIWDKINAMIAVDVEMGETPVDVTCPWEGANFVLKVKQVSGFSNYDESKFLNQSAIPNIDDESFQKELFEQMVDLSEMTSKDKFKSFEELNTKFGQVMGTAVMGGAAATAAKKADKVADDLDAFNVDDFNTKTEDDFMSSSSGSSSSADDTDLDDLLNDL

RecA (Escherichia coli) = RecA (Escherichia coli) (UniProt P0A7G6); experiment: binding assay; details: PNA; no significant fluorescence increase; Mg, ATP; purified recombinant protein; protein details: New England Biolabs; label: fluorophore and quencher; synthetic backbone
[3] = system: ET-SSB (Extreme Thermostable Single-Stranded DNA Binding Protein); experiment: binding assay; details: purified recombinant protein, protein details: New England Biolabs, label: fluorophore and quencher
[4] = biological target: T2, RNase H2 (Thermococcus gammatolerans) (UniProt C5A5T1); experiment: enzyme reaction in vitro; details: purified recombinant protein, DNA:RNA hybrid
T2 sequence (looked up, limits assumed): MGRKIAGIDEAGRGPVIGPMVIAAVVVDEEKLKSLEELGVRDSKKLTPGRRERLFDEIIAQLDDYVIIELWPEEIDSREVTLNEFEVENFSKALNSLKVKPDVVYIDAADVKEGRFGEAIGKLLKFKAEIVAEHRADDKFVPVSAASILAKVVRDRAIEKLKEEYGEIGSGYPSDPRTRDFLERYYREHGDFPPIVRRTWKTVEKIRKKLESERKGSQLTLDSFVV

## ACGAAAGCCGATGACTAAUGC [DNA5+2-FLUORO RNA16]
[1]; 16 2'-F RNA bases, fluorescence fold increase below DNA 21, variant of DNA 21
  binding result: binds more weakly
[2]; 16 2'-F RNA bases, fluorescence fold increase below DNA 21, label: fluorophore and quencher, variant of DNA 21
  binding result: binds more weakly

## ACGAAAGCCGATGACTAAUGC [DNA16+2-O-METHYL RNA5]
[1]; 5 2'-OMe RNA bases, fluorescence fold increase below DNA 21, variant of DNA 21
  binding result: binds more weakly
[2]; 5 2'-OMe RNA bases, fluorescence fold increase below DNA 21, label: fluorophore and …, variant of DNA 21
  binding result: binds more weakly

## ACGAAAGCCGATGACTAAUGC [DNA10+2-O-METHYL RNA11]
[1]; 11 2'-OMe RNA bases, fluorescence fold increase below DNA 21, variant of DNA 21
  binding result: binds more weakly
[2]; 11 2'-OMe RNA bases, fluorescence fold increase below DNA 21, label: fluorophore and quencher, variant of DNA 21
  binding result: binds more weakly

## AGTTGATGTGTACT [PNA 14]
RecA (Escherichia coli)
  binding result: no binding
[1]; PNA, probe remained quenched, Mg, ATP, 40 C, synthetic backbone
  binding result: no binding
[3]; PNA, more resistant than DNA, synthetic backbone
  binding result: binds more weakly
[2]; PNA, little or no fluorescence increase, label: fluorophore and quencher, synthetic …
  binding result: no binding

## ACGAAAGCCGATGACTAATGC [DNA 21]
[3]; fluorescence dequenching, 50 ug/ml ET-SSB, Mg, single-stranded DNA
  binding result: binds

## ACGAAAGCCGATGACTAAUGC [DNA16+RNA5]
[1]; 5 RNA bases, fluorescence fold increase below DNA 21, variant of DNA 21
  binding result: binds more weakly
[2]; 5 RNA bases, fluorescence fold increase below DNA 21, label: fluorophore and quencher, variant of DNA 21
  binding result: binds more weakly

## ACGAAAGCCGATGACTAAUGC [DNA17+RNA4]
[1]; 4 RNA bases, reduced interference with about 20% RNA, variant of DNA 21
  binding result: binds more weakly
[2]; 4 RNA bases, reduced interference with about 20% RNA, label: fluorophore and quencher, variant of DNA 21
  binding result: binds more weakly

## ACGAAAGCCGATGACTAAUGC [DNA5+2-O-METHYL RNA16]
[1]; 16 2'-OMe RNA bases, fluorescence fold increase below DNA 21, variant of DNA 21
  binding result: binds more weakly
[2]; 16 2'-OMe RNA bases, fluorescence fold increase below DNA 21, label: fluorophore and quencher, variant of DNA 21
  binding result: binds more weakly

## ACGAAAGCCGATGACTAAUGC [DNA5+RNA16]
[1]; 16 RNA bases, fluorescence fold increase below DNA 21, variant of DNA 21
  binding result: binds more weakly
[2]; 16 RNA bases, fluorescence fold increase below DNA 21, label: fluorophore and quencher, variant of DNA 21
  binding result: binds more weakly

## ACGAAAGCCGAUGACUAAUGC [2'-fluoro RNA 21]
[3]; 2'-F, more resistant than DNA
  binding result: binds more weakly

## TACGAAAGCCGATGACTAAUGC [DNA10+RNA11]
[1]; 11 RNA bases, fluorescence fold increase below DNA 21, variant of DNA 21
  binding result: binds more weakly
[2]; 11 RNA bases, fluorescence fold increase below DNA 21, label: fluorophore and quencher, variant of DNA 21
  binding result: binds more weakly

## ACGAAAGCCGAUGACUAAUGC [2'-O-methyl RNA 21]
[3]; 2'-OMe, more resistant than DNA
  binding result: binds more weakly

## ACGAAAGCCGATGACTAAUGC [DNA16+2-FLUORO RNA5]
[1]; 5 2'-F RNA bases, fluorescence fold increase below DNA 21, variant of DNA 21
  binding result: binds more weakly
[2]; 5 2'-F RNA bases, fluorescence fold increase below DNA 21, label: fluorophore and quencher, variant of DNA 21
  binding result: binds more weakly

## AGUUGAUGUGUACUCA [SB-2'-O-methyl RNA 16 probe with complementary DNA]
[4]; 2'-OMe, not cleaved, label: fluorophore and quencher
  activity on this sequence: not active

## ACGAAAGCCGAUGACUAAUGC [RNA 21]
[3]; more resistant than DNA
  binding result: binds more weakly

## AGUUGAUGUGUA [LNA 12]
[3]; LNA, more resistant than DNA, synthetic backbone
  binding result: binds more weakly

## ACGAAAGCCGATGACTAAUGC [DNA10+2-FLUORO RNA11]
[1]; 11 2'-F RNA bases, fluorescence fold increase below DNA 21, variant of DNA 21
  binding result: binds more weakly
[2]; 11 2'-F RNA bases, fluorescence fold increase below DNA 21, label: fluorophore and quencher, variant of DNA 21
  binding result: binds more weakly

## AGUUGAUGUGUACUGA / GATCTCAGTACACATCAACT [SB-2FLUORO probe with complementary DNA]
[4]; 2'-F in RNA strand, 10 ug/ml RNase H2, signal increase from cleavage, SIBA buffer, Mg, label: ROX and BHQ2
  activity on this sequence: active
